Results as given in article PMC5297800.
These are yes or no findings as the source states them, for the method shown. Binding seen in cells or lysates may run through a third protein. Some results given as binding are weak or reduced against the parent protein; the word gives no strength. Each block holds one molecule with its values, some of them ahead of it.

The chains behind the UniProt entries cited, without tags or fusion partners.
UniProt P63159: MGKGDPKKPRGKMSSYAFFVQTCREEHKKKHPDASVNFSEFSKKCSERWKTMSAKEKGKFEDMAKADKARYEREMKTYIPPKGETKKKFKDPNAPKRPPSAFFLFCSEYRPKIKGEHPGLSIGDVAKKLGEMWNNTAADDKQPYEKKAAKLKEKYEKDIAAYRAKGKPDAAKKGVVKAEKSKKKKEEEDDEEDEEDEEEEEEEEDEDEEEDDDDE
UniProt P18757: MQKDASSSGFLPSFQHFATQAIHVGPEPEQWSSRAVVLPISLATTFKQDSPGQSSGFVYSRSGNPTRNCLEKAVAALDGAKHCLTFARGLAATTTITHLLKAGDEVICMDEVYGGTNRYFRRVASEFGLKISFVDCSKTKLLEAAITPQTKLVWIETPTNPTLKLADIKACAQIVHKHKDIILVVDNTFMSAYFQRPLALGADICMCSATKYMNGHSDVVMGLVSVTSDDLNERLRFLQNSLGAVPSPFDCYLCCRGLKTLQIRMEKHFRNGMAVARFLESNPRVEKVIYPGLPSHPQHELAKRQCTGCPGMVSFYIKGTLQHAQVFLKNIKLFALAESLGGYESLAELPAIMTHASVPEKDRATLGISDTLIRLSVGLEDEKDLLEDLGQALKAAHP

Target: High-mobility group box 1 (cytoplasmic) (rat (endogenous in Lewis rat liver)) (UniProt P63159)
Assay: co-IP; co-IP of rat liver cytoplasmic extracts (WI/R and normal) with anti-HMGB1 (N-terminal) or anti-HMGB1 (C-terminal), rabbit IgG as control antibody; eluates probed by Western blot for the candidate proteins

binding: binds
Molecule: Cystathionine γ-lyase (from UniProt P18757 1-398) (enzyme)

binding: binds
B1: Betaine-homocysteine S-methyltransferase 1 (enzyme, UniProt O09171 1-407)
chain: MAPIAGKKAKRGILERLNAGEVVIGDGGFVFALEKRGYVKAGPWTPEAAVEHPEAVRQLHREFLRAGSNVMQTFTFYASEDKLENRGNYVAEKISGQKVNEAACDIARQVADEGDALVAGGVSQTPSYLSCKSETEVKKIFHQQLEVFMKKNVDFLIAEYFEHVEEAVWAVEALKTSGKPIAATMCIGPEGDLHGVSPGECAVRLVKAGAAIVGVNCHFDPSTSLQTIKLMKEGLEAARLKAYLMSHALAYHTPDCGKQGFIDLPEFPFGLEPRVATRWDIQKYAREAYNLGVRYIGGCCGFEPYHIRAIAEELAPERGFLPPASEKHGSWGSGLDMHTKPWIRARARKEYWQNLRIASGRPYNPSMSKPDAWGVTKGAAELMQQKEATTEQQLRALFEKQKFKSAQ
